Taken from: PubChem BioAssay AID504774 (Drosophila RNAi Screening Center, 2011)

Purpose: 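Knock-downs that shift viability of MMS-exposed cells relative to untreated ones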 (primary screen)
Cell system: Drosophila Kc167 cells
Reagent: long dsRNA against Drosophila genes, about 0.25 µg dsRNA per well
Time to read-out: about 6 days: 3 days knock-down, then 3 days with or without MMS
Treatment: methyl methanesulphonate 0.004% (w/v) for 3 days after knock-down
Measurement: 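ATP-dependent luminescence as a measure of live cells in MMS-exposed wells, quantile normalised within each plate, with replicate values also given as a mean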
Scale: mean viability with MMS and viability with MMS: higher = more surviving cells after MMS
The screen tested about 23,000 reagents; this is a random part of those with a known target gene and a result. 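Values are quantile-normalised luminescence on an arbitrary scale; higher means more cells surviving MMS.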 Reagents against one gene are numbered here.

| target | reagent no. | mean viability with MMS | viability with MMS, replicate 1 | viability with MMS, replicate 2 |
| --- | --- | --- | --- | --- |
| CG34165 (GeneID 5740685) | 1 | 2.93e6 | 3.52e6 | 3.49e6 |
| Vps16A (GeneID 41107) | 1 | 3.32e6 | 3.80e6 | 3.82e6 |
| CG6023 (GeneID 32814) | 1 | 3.63e6 | 4.20e6 | 4.07e6 |
| Pka-R2 (GeneID 36041) | 1 | 3.50e6 | 4.05e6 | 3.91e6 |
| fs(2)ltoPP43 (GeneID 49505) | 1 | 3.53e6 | 3.96e6 | 4.03e6 |
| NAAT1 (GeneID 31457) | 1 | 3.67e6 | 4.11e6 | 4.21e6 |
| Osi20 (GeneID 40777) | 1 | 3.55e6 | 4.06e6 | 4.01e6 |
| SLO2 (GeneID 5740325) | 1 | 2.92e6 | 3.59e6 | 3.61e6 |
| SLO2 (GeneID 5740325) | 2 | 3.70e6 | 4.15e6 | 4.12e6 |
| SLO2 (GeneID 5740325) | 3 | 3.49e6 | 4.00e6 | 3.94e6 |
| SLO2 (GeneID 5740325) | 4 | 3.54e6 | 4.05e6 | 3.97e6 |
| SLO2 (GeneID 5740325) | 5 | 2.99e6 | 3.63e6 | 3.64e6 |
| SLO2 (GeneID 5740325) | 6 | 3.28e6 | 3.87e6 | 3.56e6 |
| CG42594 (GeneID 8674091) | 1 | 2.44e6 | 3.32e6 | 3.30e6 |
| CG42594 (GeneID 8674091) | 2 | 3.56e6 | 4.11e6 | 3.99e6 |
| CG42594 (GeneID 8674091) | 3 | 2.48e6 | 2.62e6 | 2.84e6 |
| CG9067 (GeneID 36197) | 1 | 3.61e6 | 4.03e6 | 4.18e6 |
| PpN58A (GeneID 37493) | 1 | 3.40e6 | 3.91e6 | 3.57e6 |
| COX6B (GeneID 32989) | 1 | 3.65e6 | 4.10e6 | 4.22e6 |
| CG7546 (GeneID 38844) | 1 | 3.58e6 | 3.99e6 | 4.12e6 |
| CG7546 (GeneID 38844) | 2 | 3.55e6 | 4.01e6 | 4.06e6 |
| CG7546 (GeneID 38844) | 3 | 3.55e6 | 4.00e6 | 4.04e6 |
| Pak3 (GeneID 41995) | 1 | 3.59e6 | 4.05e6 | 4.09e6 |
| tfc (GeneID 38141) | 1 | 3.70e6 | 4.09e6 | 4.24e6 |
| tfc (GeneID 38141) | 2 | 3.52e6 | 3.87e6 | 4.11e6 |
| tfc (GeneID 38141) | 3 | 3.65e6 | 4.13e6 | 4.16e6 |
| tfc (GeneID 38141) | 4 | 3.51e6 | 3.91e6 | 4.08e6 |
| Dhc36C (GeneID 35061) | 1 | 3.61e6 | 3.98e6 | 4.20e6 |
